Data published in publication PMC9246382.
These are yes or no findings as the source states them, for the method shown. In cells and extracts the contact can be indirect. Some results given as binding are weak or reduced against the parent protein; the word gives no strength.

By UniProt entry, the sequences of proteins in these tests, tags left out. Where a name states a change or a piece, a line headed by the entry shows the natural chain unless it says otherwise. Residues count along the entry.
UniProt Q16740: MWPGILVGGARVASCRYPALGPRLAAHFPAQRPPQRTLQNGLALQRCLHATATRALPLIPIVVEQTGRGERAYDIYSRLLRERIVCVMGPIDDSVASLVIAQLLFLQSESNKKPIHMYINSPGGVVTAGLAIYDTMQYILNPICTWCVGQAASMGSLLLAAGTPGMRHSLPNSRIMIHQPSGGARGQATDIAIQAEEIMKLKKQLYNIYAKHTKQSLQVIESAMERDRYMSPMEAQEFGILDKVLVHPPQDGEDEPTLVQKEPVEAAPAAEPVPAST
UniProt O88696, residues 53-272: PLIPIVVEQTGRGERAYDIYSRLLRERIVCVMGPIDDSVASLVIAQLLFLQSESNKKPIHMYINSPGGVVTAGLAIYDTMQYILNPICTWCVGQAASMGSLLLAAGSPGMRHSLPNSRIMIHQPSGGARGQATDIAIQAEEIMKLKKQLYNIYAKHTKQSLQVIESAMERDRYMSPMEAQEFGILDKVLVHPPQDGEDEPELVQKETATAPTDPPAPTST

Tests used:
[1] = target: HSP60 construct with a V5 tag (unchanged parent) (UniProt P10809); test: co-IP; V5-tagged HSP60 constructs cotransfected with FLAG-tagged ClpP in PC-3 cells; IP with anti-V5 or anti-FLAG antibody
[2] = target: HSP60, endogenous in murine TKO prostate tumors (mouse (endogenous in TKO prostate tumors)) (UniProt P63038); test: co-IP; endogenous proteins in TKO prostatic tumor tissues (mouse)
[3] = target: heat shock protein 60 (HSP60), endogenous in human prostate cancer cells (human (endogenous in LNCaP, PC-3, DU145)) (UniProt P10809); test: proximity ligation; cultured PCa cells (PC-3) and patient PCa specimens on a tissue microarray; also DCEM1-treated PC-3 cells and PC-3 xenograft tumors
[4] = target: heat shock protein 60 (HSP60), endogenous in human prostate cancer cells (human (endogenous in LNCaP, PC-3, DU145)) (UniProt P10809); test: co-IP; double IP: first IP with anti-HSP60 antibody, then ClpP IP or HSP10 IP in the eluate, Western blotting for HSP60, HSP10 and ClpP
[5] = target: heat shock protein 60 (HSP60), endogenous in human prostate cancer cells (human (endogenous in LNCaP, PC-3, DU145)) (UniProt P10809); test: co-IP; endogenous proteins in LNCaP, PC-3 and DU145 cells; also after ClpP overexpression and after DCEM1 treatment for 24 hours (DCEM1 inhibited HSP60-ClpP dose-dependently, not HSP60-HSP10)

ClpP construct with a FLAG tag (from UniProt Q16740 57-277) (enzyme)
binding [1]: binds

ClpP, endogenous in murine TKO prostate tumors (from UniProt O88696 53-272) (enzyme)
binding [2]: binds

caseinolytic protease P (ClpP), endogenous in human prostate cancer cells (from UniProt Q16740 57-277) (enzyme)
binding [3]: binds
binding [4]: binds
binding [5]: binds
